These are yes or no findings as the source states them, for the method shown. Binding seen in cells or lysates may run through a third protein. Some binding calls cover weakened binding; strength is not graded here. Tags and fused reporters may be left off the sequences shown.
B1: GST-TR2-#2 (DBD, aa 88-196 of TR2) (protein, not shown: a dimerising Fc or GST; large carriers; small tags and cut ends)
chain: DLSAQHLQLLTDNSPDQGPNKVFDLCVVCGDKASGRHYGAVTCEGCKGFFKRSIRKNLVYSCRGSKDCIINKHHRNRCQYCRLQRCIAFGMKQDSVQCERKPIEVSREK
B2: GST-TR4-LBD (aa 224-615 of human TR4) (protein, not shown: a dimerising Fc or GST; small tags and cut ends)
chain: AASTEKIYIRKDLRSPLIATPTFVADKDGARQTGLLDPGMLVNIQQPLIREDGTVLLATDSKAETSQGALGTLANVVTSLANLSESLNNGDTSEIQPEDQSASEITRAFDTLAKALNTTDSSSSPSLADGIDTSGGGSIHVISRDQSTPIIEVEGPLLSDTHVTFKLTMPSPMPEYLNVHYICESASRLLFLSMHRARSIPAFQGLGQDCNTSLVRACWNELFTLGLAQCAQVMSLSTILAAIVNHLQNSIQEDKLSGDRIKQVMEHIWKLQEFCNSMANWDIDGYEYAYLKAIVLFSPDHPGLTSTSQIEKFQEKAQMELQDYVQKTYSEDTYRLARILVRLPALRLMSSNITEELFFTGLIGNVSIDSIIPYILKMETAEYNGQITGVSL

By UniProt entry, the sequences of proteins in these tests, tags left out. Where a name states a change or a piece, a line headed by the entry shows the natural chain unless it says otherwise.
UniProt P03372: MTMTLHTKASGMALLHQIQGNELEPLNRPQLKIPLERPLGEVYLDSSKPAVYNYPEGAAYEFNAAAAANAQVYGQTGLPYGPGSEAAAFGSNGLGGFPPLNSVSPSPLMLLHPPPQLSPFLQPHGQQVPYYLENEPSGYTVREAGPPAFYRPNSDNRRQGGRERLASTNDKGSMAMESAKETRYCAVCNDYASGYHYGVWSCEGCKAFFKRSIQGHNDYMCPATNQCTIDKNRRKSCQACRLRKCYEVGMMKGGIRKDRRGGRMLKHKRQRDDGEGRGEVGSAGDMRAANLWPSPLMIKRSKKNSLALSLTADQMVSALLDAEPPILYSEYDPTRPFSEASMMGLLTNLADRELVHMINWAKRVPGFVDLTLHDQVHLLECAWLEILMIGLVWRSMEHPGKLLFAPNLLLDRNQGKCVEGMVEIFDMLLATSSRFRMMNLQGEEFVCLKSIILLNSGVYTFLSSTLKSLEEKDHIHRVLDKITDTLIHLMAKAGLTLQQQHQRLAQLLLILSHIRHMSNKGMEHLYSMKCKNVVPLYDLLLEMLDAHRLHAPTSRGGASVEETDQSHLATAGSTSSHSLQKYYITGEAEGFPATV

How the values were obtained:
[1] = biological target: estrogen receptor (ER), full-length (human) (UniProt P03372); assay: GST pull-down, GST-TR2 fragment on beads, [35S]-ER
[2] = biological target: estrogen receptor (ER), full-length (human) (UniProt P03372); assay: GST pull-down, GST fusion on beads, [35S]-ER

Row | Binder | binding [1] | binding [2]
1 | B1 | binds | –
2 | B2 | – | binds

From patent US20030235860A1, “Interactions between AR, ER, TR2, and TR4” (priority 1999, published 2003)
